Reference: the supplement of paper PMC8326762, “A Small Molecule Inhibitor of Pex3–Pex19 Interaction Disrupts Glycosome Biogenesis and Causes Lethality in Trypanosoma brucei” (Frontiers in Cell and Developmental Biology, 2021)
Structures can show the parent of a compound that is named as a salt. The list shows a part of the results. This is a noisy data set.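 Yeast growth was read as optical density at 600 nm. The two-hybrid strains grew without histidine, so growth needed the Pex3–Pex19 binding; a compound counted as trypanosome-selective if it cut growth of the trypanosome-pair strain by more than 65% and the human-pair strain by less than 65%.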

What follows are compounds tested on Saccharomyces cerevisiae HF7c pdr5Δ (assay: general growth inhibition of yeast HF7c pdr5Δ in -Leu -Trp medium, relative to DMSO; higher = stronger general growth inhibition). Details: 100 µM; 24 h.
Work on CCCCC1(C2CCCC2)Cc2cc(OCC(=O)O)c(Cl)c(Cl)c2C1=O (stereo in doubt) [R(+)-Butylindazone] yielded a general growth inhibition of 78.3%. With O=C(O)Cn1c(C(=O)Nc2nc(-c3ccccc3Cl)cs2)cc2ccccc21 the general growth inhibition was 29.8%. In the case of NC(Cc1cccc(-c2ccccc2CP(=O)(O)O)c1)C(=O)O (stereo not drawn) [Phenylbenzene-omega-phosphono-alpha-amino acid], the general growth inhibition is reported as 51.3%. With COc1cc(N)c(Cl)cc1C(=O)OCCN1CCCCC1 the general growth inhibition was 28.9%. In the case of COc1ccc2cc([C@H](C)C(=O)O)ccc2c1 [(-)-Naproxen sodium], the general growth inhibition is reported as 24.7%. Compound O=c1c(O)c(-c2ccc(O)cc2O)oc2cc(O)cc(O)c12 [Morin] has a general growth inhibition of 49.1%. With CCCCc1ncc(/C=C(\Cc2cccs2)C(=O)O)n1Cc1ccc(C(=O)O)cc1 [Eprosartan mesylate] the general growth inhibition was 38.6%. Work on CN(C)C(=O)C(CCN1CCC(O)(c2ccc(Cl)cc2)CC1)(c1ccccc1)c1ccccc1 [Loperamide hydrochloride] yielded a general growth inhibition of 31.4%. For COc1ccccc1N1CCN(CCN(C(=O)C2CCCCC2)c2ccccn2)CC1, the general growth inhibition was 52.6%. Compound O=C(O)c1cccnc1Nc1cccc(C(F)(F)F)c1 [Niflumic acid] has a general growth inhibition of 48.7%. For CNC(=N)NCCC[C@H](N)C(=O)O [NG-Monomethyl-L-arginine acetate], the general growth inhibition was 48.5%. Cc1nc2c(OCc3ccccc3)cccn2c1CC#N gave a general growth inhibition of 44.5%. With NC(N)=NCc1cccc(I)c1 [m-Iodobenzylguanidine hemisulfate] the general growth inhibition was 12.4%. Work on Cn1cnc([N+](=O)[O-])c1Sc1ncnc2[nH]cnc12 [Azathioprine] yielded a general growth inhibition of 45.6%.
